PubChem BioAssay AID504791 | Drosophila RNAi Screening Center, 2011

- Screen: 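Genes whose knock-down strengthens or weakens small-RNA reporter silencing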 (primary screen)
- Cell system: Drosophila S2-derived reporter cells
- Reagent: long dsRNA against Drosophila genes, about 150-250 ng dsRNA per well (siRNA assay); about 80-120 ng (miRNA assay)
- Duration: about 5 days (siRNA assay); about 4 days (miRNA assay)
- Treatment: copper sulfate induction of reporters: 25 µM (siRNA assay); 200 mM stated (miRNA assay), 1-2 days before reading
- Detection: 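Dual luciferase assay: Renilla to firefly signal ratio in each well, scaled to the mean ratio of its plate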
- Rule for the call: 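a well was a first-pass pick when its plate-scaled ratio rose above 1.5 (siRNA assay) or 1.6 (miRNA assay), or dropped below 0.6; a gene counted only if two separate dsRNAs agreed on retest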
The deposit covers about 23,000 reagents; below is a random part of those that have a named target and a result. Of all reagents, 199 (0.86%) are marked active. 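Plate-scaled ratios behind the calls are not deposited; printed light signals are raw; many rows marked increased or decreased are still called inactive.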 The numbers tell different reagents against one gene apart. The record does not give: the direction of the score.

gene | dsRNA no. | miRNA reporter change | stable assay Renilla, run 1 (luminescence) | stable assay firefly, run 1 (luminescence) | outcome
Or23a | 1 | – | 8593 | 4.16e5 | inactive
CG9162 (retired record) | 1 | – | 20367 | 5.04e5 | inactive
CG33483 | 1 | – | 8188 | 4.22e5 | inactive
sn | 1 | – | 5615 | 2.73e5 | inactive
up | 1 | reporter ratio lowered past the hit cutoff | 7330 | 5.20e5 | active
CG12998 | 1 | – | 5242 | 4.05e5 | inactive
CG5348 | 1 | – | 6355 | 3.20e5 | inactive
Grip128 | 1 | – | 9258 | 4.09e5 | inactive
Gdh | 1 | – | 10279 | 5.43e5 | inactive
RpS5b | 1 | – | 7708 | 4.05e5 | inactive
CG4025 | 1 | – | 5219 | 3.13e5 | inactive
CG11811 | 1 | – | 5724 | 3.39e5 | inactive
CG7849 | 1 | – | 6455 | 4.09e5 | inactive
Rae1 | 1 | – | 6050 | 4.98e5 | inactive
Uba4 | 1 | – | 6876 | 3.58e5 | inactive
EndoU | 1 | – | 9186 | 5.26e5 | inactive
CG11815 | 1 | – | 5191 | 4.12e5 | inactive
fau | 1 | – | 5631 | 3.28e5 | inactive
fau | 2 | – | 6210 | 3.95e5 | inactive
fau | 3 | – | 7760 | 4.71e5 | inactive
fau | 4 | – | 6143 | 3.30e5 | inactive
fau | 5 | – | 4431 | 3.09e5 | inactive
fau | 6 | – | 9826 | 6.29e5 | inactive
Obp19b | 1 | – | 5776 | 5.15e5 | inactive
CG4619 | 1 | – | 6238 | 3.62e5 | inactive
CG8237 | 1 | – | 7710 | 5.31e5 | inactive
deltaCOP | 1 | – | 6306 | 2.77e5 | inactive
CG32695 | 1 | – | 3087 | 3.05e5 | inactive
sano | 1 | – | 11449 | 4.42e5 | inactive
cato | 1 | – | 7246 | 3.55e5 | inactive
CG5888 | 1 | – | 41541 | 1.21e6 | inactive
CG12126 | 1 | – | 8115 | 6.53e5 | inactive
l(1)G0020 | 1 | – | 5375 | 3.76e5 | inactive
Ugt37E1 | 1 | – | 7306 | 3.55e5 | inactive

Active calls, of those listed so far:
gene | dsRNA no. | miRNA reporter change | stable assay Renilla, run 1 (luminescence) | stable assay firefly, run 1 (luminescence) | outcome
up | 1 | reporter ratio lowered past the hit cutoff | 7330 | 5.20e5 | active
